No constants are given. Whether binding was seen depends on the method and setting. Binding seen in cells or lysates may run through a third protein. These calls come from enrichment with a bait or labelling near it, and not all partners need be listed. No binding means not detected with the bait.
Molecular target: RPN11/PSMD14 with an endogenous biotin-TEV purification handle (human (endogenous in HCT116)) (UniProt O00487)
Experiment: affinity purification with mass spectrometry; HCT116 cells with biotin-TEV handle on RPN1, RPN11 or PSMB4, crosslinked in situ (4.4 mM SDA 25 min, 365 nm UV 10 s); lysate on streptavidin beads 2 h 4°C, on-bead digestion, label-free quantification against wild-type HCT116

Chains of the proteins cited; added tags and fusions are not shown.
UniProt O00487: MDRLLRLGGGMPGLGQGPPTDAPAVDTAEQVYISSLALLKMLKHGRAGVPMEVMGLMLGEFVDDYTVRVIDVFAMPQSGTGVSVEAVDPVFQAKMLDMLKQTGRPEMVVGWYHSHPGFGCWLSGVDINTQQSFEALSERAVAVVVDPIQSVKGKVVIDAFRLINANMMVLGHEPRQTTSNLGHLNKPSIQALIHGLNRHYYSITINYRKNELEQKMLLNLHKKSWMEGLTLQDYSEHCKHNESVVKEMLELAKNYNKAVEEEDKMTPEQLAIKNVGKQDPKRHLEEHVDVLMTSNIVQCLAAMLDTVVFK
UniProt Q9Y244: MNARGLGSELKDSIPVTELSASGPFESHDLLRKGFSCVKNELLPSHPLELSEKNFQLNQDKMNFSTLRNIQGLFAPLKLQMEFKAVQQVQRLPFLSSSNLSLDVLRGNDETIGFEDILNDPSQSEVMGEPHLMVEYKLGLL

## POMP (from UniProt Q9Y244 1-141)
  binding: no binding

B1: PSMG1 (protein, UniProt O95456 1-288)
chain: MAATFFGEVVKAPCRAGTEDEEEEEEGRRETPEDREVRLQLARKREVRLLRRQTKTSLEVSLLEKYPCSKFIIAIGNNAVAFLSSFVMNSGVWEEVGCAKLWNEWCRTTDTTHLSSTEAFCVFYHLKSNPSVFLCQCSCYVAEDQQYQWLEKVFGSCPRKNMQITILTCRHVTDYKTSESTGSLPSPFLRALKTQNFKDSACCPLLEQPNIVHDLPAAVLSYCQVWKIPAILYLCYTDVMKLDLITVEAFKPILSTRSLKGLVKNIPQSTEILKKLMTTNEIQSNIYT
  binding: no binding

B2: PSMG2 (protein, UniProt Q969U7 1-264)
chain: MFVPCGESAPDLAGFTLLMPAVSVGNVGQLAMDLIISTLNMSKIGYFYTDCLVPMVGNNPYATTEGNSTELSINAEVYSLPSRKLVALQLRSIFIKYKSKPFCEKLLSWVKSSGCARVIVLSSSHSYQRNDLQLRSTPFRYLLTPSMQKSVQNKIKSLNWEEMEKSRCIPEIDDSEFCIRIPGGGITKTLYDESCSKEIQMAVLLKFVSEGDNIPDALGLVEYLNEWLQILKPLSDDPTVSASRWKIPSSWRLLFGSGLPPALF
  binding: no binding

Source: paper PMC13580404 (Molecular cell, 2026)
